Measured values: article PMC7567103 (Nature Communications, 2020)
Results are given in words; binding and its absence hold for the method and conditions named. For part of these data: Binding seen in cells or lysates may run through a third protein. Some entries that bind do so weakly or less than the wild type. For part of these data: Where a sequence is shown, tags or fusion partners need not be part of it. Each block holds one molecule with its values, some of them ahead of it.

Tests used:
[1] = target: T1, HA-Flag-GHRHR-Rluc8 M214V (human) (UniProt Q02643); assay: FRET or BRET; HEK 293 T cells co-transfected with HA-Flag-GHRHR-Rluc8 and β-arrestin2-Venus (1:9), coelenterazine h, 250 μM GHRH added; AUC of the BRET time course normalised to WT (100%)
T1 sequence: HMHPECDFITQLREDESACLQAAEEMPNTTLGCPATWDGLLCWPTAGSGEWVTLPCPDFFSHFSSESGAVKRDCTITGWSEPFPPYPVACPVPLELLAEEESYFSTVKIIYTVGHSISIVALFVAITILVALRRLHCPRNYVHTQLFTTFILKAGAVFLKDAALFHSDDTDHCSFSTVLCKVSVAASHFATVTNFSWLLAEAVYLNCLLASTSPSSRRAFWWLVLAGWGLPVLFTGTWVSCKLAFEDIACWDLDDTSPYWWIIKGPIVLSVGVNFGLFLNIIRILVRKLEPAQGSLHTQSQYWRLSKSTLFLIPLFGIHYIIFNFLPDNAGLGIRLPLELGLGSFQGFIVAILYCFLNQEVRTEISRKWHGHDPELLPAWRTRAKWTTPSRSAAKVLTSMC

[2] = target: T2, HA-Flag-GHRHR-Rluc8 (WT) (human) (UniProt Q02643); assay: as above
T2 sequence: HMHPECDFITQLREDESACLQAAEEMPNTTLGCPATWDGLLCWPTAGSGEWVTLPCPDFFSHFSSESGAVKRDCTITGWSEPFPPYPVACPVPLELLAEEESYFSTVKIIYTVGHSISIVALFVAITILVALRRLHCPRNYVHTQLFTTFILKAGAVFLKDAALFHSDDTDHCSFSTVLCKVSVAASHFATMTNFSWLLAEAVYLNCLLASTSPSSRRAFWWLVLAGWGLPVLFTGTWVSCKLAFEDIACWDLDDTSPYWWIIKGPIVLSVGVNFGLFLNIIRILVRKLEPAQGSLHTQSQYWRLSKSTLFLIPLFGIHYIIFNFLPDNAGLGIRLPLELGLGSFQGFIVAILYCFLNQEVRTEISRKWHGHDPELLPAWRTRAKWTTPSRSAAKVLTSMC

[3] = target: T3, HA-Flag-GHRHR-Rluc8 S292W (human) (UniProt Q02643); assay: FRET or BRET; HEK 293T cells co-transfected with HA-Flag-GHRHR-Rluc8 (WT or mutant) and β-arrestin2-Venus (1:9); 5 μM coelenterazine h; BRET ratio 535/470 nm followed after addition of 250 μM GHRH; AUC normalized to WT
T3 sequence: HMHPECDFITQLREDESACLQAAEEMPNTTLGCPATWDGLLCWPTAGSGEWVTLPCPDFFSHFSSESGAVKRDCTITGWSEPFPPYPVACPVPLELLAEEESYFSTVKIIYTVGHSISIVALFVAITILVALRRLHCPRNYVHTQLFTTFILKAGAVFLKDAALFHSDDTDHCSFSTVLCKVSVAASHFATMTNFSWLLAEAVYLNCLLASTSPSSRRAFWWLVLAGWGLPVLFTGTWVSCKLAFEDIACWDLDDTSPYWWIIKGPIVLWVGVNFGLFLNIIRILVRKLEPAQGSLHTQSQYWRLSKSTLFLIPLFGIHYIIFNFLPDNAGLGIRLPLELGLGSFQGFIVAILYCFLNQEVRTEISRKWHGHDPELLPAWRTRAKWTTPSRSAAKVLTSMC

[4] = target: T4, HA-Flag-GHRHR-Rluc8 A271V (human) (UniProt Q02643); assay: as above
T4 sequence: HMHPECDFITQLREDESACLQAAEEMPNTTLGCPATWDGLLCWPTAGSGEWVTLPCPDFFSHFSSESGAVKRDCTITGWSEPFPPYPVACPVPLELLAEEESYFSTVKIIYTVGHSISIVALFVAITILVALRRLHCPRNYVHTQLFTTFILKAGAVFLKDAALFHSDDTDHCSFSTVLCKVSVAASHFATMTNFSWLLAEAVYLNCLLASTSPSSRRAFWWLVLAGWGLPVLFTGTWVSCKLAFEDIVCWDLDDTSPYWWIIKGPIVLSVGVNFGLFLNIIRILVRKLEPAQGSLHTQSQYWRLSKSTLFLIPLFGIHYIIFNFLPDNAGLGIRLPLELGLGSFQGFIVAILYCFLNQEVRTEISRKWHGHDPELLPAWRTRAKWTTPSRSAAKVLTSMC

[5] = target: T2, HA-Flag-GHRHR-Rluc8 (WT) (human); assay: as above
[6] = target: T5, GHRHR(23-423) (WT) (human) (UniProt Q02643); assay: radioligand binding; whole HEK 293T cells 24 h after transfection; 125I-GHRH (80 pM) competed by seven decreasing concentrations of unlabeled GHRH (from 10 μM); binding buffer PBS with 10% (w/v) BSA, pH 7.4, RT, 3 h; three-parameter logistic fit, normalized to WT; only the binder purified
T5 sequence: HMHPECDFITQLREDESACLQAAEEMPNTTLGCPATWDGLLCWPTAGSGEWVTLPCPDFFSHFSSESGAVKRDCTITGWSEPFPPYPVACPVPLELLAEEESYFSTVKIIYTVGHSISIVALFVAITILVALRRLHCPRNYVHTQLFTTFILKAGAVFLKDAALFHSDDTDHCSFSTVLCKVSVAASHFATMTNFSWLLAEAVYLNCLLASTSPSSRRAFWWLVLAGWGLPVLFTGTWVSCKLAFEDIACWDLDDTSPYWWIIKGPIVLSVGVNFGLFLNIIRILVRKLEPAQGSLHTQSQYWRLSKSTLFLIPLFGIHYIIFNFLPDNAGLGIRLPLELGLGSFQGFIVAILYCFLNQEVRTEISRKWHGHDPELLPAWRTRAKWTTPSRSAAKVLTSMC

[7] = target: T6, GHRHR(23-405)-15AA-LgBiT-2MBP (human) (UniProt Q02643); assay: as above
T6 sequence: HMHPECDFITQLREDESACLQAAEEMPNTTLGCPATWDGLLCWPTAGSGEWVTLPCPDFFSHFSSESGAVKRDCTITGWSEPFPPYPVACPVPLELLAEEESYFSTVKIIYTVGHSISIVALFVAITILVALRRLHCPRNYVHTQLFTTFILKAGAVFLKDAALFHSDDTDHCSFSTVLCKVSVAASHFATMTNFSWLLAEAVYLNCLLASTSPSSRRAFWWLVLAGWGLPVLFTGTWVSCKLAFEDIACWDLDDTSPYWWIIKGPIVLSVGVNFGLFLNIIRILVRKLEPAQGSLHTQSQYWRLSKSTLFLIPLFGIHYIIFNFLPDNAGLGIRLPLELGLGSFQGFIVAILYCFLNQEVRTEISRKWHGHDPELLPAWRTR

GHRHR(23-423) (human) = target: T7, GHRHR(23-423) (human) (UniProt Q02643); assay: radioligand binding; whole cell competition: HEK 293 T cells transfected with the receptor, 125I-GHRH (80 pM) against unlabeled peptide (from 10 μM), PBS with 10% BSA pH 7.4, RT, 3 h; only the binder purified
T7 sequence: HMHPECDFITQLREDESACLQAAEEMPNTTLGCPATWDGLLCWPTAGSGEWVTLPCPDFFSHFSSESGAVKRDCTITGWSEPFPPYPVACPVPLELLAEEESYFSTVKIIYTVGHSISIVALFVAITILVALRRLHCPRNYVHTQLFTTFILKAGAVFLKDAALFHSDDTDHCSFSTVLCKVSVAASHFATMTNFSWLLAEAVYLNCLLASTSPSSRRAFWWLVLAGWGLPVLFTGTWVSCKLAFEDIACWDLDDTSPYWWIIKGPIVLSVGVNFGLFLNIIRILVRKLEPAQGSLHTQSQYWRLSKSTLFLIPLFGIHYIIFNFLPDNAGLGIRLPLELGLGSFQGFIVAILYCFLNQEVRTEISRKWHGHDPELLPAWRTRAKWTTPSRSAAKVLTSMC

[8] = target: T8, GHRHR(23-405)-LgBiT-2MBP (human) (UniProt Q02643); assay: as above
T8 sequence: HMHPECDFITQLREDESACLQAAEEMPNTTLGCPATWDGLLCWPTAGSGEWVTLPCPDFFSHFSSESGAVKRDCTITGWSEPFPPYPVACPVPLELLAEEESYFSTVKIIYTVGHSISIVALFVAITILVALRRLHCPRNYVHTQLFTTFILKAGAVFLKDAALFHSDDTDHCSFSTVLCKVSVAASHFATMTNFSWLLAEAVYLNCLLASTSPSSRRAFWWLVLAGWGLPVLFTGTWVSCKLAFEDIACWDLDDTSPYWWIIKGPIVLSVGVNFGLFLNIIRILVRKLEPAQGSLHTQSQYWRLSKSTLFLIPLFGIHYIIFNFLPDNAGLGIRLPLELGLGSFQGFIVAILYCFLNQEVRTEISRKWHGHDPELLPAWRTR

binding [1]: binds
binding [2]: binds
binding [3]: binds
binding [4]: binds
binding [5]: binds
Molecule: β-arrestin2-Venus (from UniProt P32121 1-409)

binding [6]: binds
binding [7]: binds
Molecule: YADAIFTNSYRKVLGQLSARKLLQDIMSRQQGESNQERGARARL (peptide, UniProt P01286 32-75, 125I label (position not given)) [125I-GHRH]

binding (GHRHR(23-423) (human)): binds
binding [8]: binds
Molecule: YADAIFTNSYRKVLGQLSARKLLQDIMSRQQGESNQERGARARL (peptide, UniProt P01286 32-75, looked up) [Growth hormone-releasing hormone (GHRH)]
